According to publication PMC3326058:
These are yes or no findings as the source states them, for the method shown. Binding seen in cells or lysates may run through a third protein. For part of these data: A result given as binding can be weak or reduced; the word gives no strength. Where a sequence is shown, tags or fusion partners need not be part of it.

Assays:
Experiment in all cases: pull-down; GST fusion proteins bound to glutathione agarose beads, incubated with HEK293T cell extract containing Flag-JMJD2D in 20 mM HEPES, 50 mM NaCl, 1 mM DTT, 0.01% Tween-20 for 3 h at 4°C; three washes; anti-Flag (M2) Western blot; only the target purified
[1] = biological target: GST-p53 C-terminus (human)
[2] = biological target: GST-p53 central DNA binding domain (human)
[3] = biological target: GST-p53 N-terminus (human)

binding [1]: no binding
binding [2]: binds
binding [3]: no binding
B1: Flag-tagged JMJD2D (enzyme, UniProt Q6B0I6 1-523)
chain: METMKSKANCAQNPNCNIMIFHPTKEEFNDFDKYIAYMESQGAHRAGLAKIIPPKEWKARETYDNISEILIATPLQQVASGRAGVFTQYHKKKKAMTVGEYRHLANSKKYQTPPHQNFEDLERKYWKNRIYNSPIYGADISGSLFDENTKQWNLGHLGTIQDLLEKECGVVIEGVNTPYLYFGMWKTTFAWHTEDMDLYSINYLHLGEPKTWYVVPPEHGQRLERLARELFPGSSRGCGAFLRHKVALISPTVLKENGIPFNRITQEAGEFMVTFPYGYHAGFNHGFNCAEAINFATPRWIDYGKMASQCSCGEARVTFSMDAFVRILQPERYDLWKRGQDRAVVDHMEPRVPASQELSTQKEVQLPRRAALGLRQLPSHWARHSPWPMAARSGTRCHTLVCSSLPRRSAVSGTATQPRAAAVHSSKKPSSTPSSTPGPSAQIIHPSNGRRGRGRPPQKLRAQELTLQTPAKRPLLAGTTCTASGPEPEPLPEDGALMDKPVPLSPGLQHPVKASGCSWAPVP
